Test results as given in patent US20240279201A1, “DUAL WNT SIGNALING PATHWAY INHIBITORS AND AMPK ACTIVATORS FOR TREATMENTS OF DISEASE” (priority 2021, published 2024).

Test: physchem
Settings: water
Procedure: The ADMET and PK properties of YA6060 was determined.
Determination of physiochemical properties. The profiles of six selected analogs is estimated in silico, and selected Axin stabilizers are evaluated in in vitro assays: the aqueous solubility is determined using a multiscreen solubility filter plate (Millipore, Billerica, MA) coupled with LC-MS/MS, as performed for the already synthesized YA6060 analogs; the cell viability assays on selected analogs is measured using HEK293 cells; the intestinal permeability by determining the transport from the apical to the basolateral (A to B) in Caco-2 monolayers; the metabolic stability by incubating the compounds with mouse microsomes and liver tissue S9 fraction and analyzing by LC-MS/MS.

With `Cc1cc(/C=C/c2ccc3cc(N(C)C)ccc3[n+]2C)c(C)n1-c1ccccc1` [Pyr, reference compound] the solubility was less than 10 µg/mL.
